Test results: PMC5114727, “Biological characterization of chemically diverse compounds targeting the Plasmodium falciparum coenzyme A synthesis pathway” (Parasites & Vectors, 2016)

Legend:
[1] = test system: HEK293 cells; details: as previously reported; cited from earlier work
[2] = test system: T. b. brucei trypomastigote; assay: T. b. brucei resazurin (Alamar Blue) viability assay; format: cell-based, Trypanosoma brucei brucei; details: HEK293 cytotoxicity from ref 22
Method: Compound activity against two members of another clinically important group of parasites, the kinetoplastids T. cruzi and T. b. brucei was determined. The sensitive high content imaging assay used to determine compound activity against T. cruzi assesses the intracellular amastigote life form of the parasite in the 3T3 host cell. […] The T. b. brucei assay employs the REDOX indicator Alamar Blue to assess viability, which was developed into a 384-well assay format.
Compound activity against T. b. brucei was assessed in a resazurin-based viability assay in concentration-response assays, without technical repeats, in two experimental replicates at a highest concentration of 40 μM, as previously described.

[3] = test system: T. cruzi amastigotes; assay: T. cruzi amastigote image-based assay in 3T3 host cells; format: cell-based, Trypanosoma cruzi
Method: The next step taken was to determine whether the activity of the compounds was confined to P. falciparum, or whether it extended to other protozoan parasites. Compound activity against two members of another clinically important group of parasites, the kinetoplastids T. cruzi and T. b. brucei was determined. The sensitive high content imaging assay used to determine compound activity against T. cruzi assesses the intracellular amastigote life form of the parasite in the 3T3 host cell. It is important to simultaneously assess compound activity against 3T3 cells to determine potential cytotoxicity against the host cell line, since this could result in a false positive outcome. The T. b. brucei assay employs the REDOX indicator Alamar Blue to assess viability, which was developed into a 384-well assay format.
Compound activity against T. cruzi amastigotes was assessed in an image-based assay in single point concentration-response and three biological replicates, at a final highest compound concentration of […], as previously described.

[4] = test system: T. cruzi trypomastigotes; assay: T. cruzi trypomastigote PrestoBlue assay; format: cell-based, Trypanosoma cruzi; details: HEK293 cytotoxicity from ref 22
Method: Compound activity against T. cruzi trypomastigotes was assessed in two independent experiments, without technical repeats, at a final highest compound concentration of 40 μM in concentration-response PrestoBlue assay, as previously described.

Row | SMILES | SI (P. falciparum asexual stages over HEK293) [1] | SI over HEK293 (T. b. brucei trypomastigote) [2] | SI over 3T3 host cell (T. cruzi amastigote) [3] | SI over HEK293 (T. cruzi trypomastigote) [4]
1 | Cc1csc(Sc2ncnc3sccc23)n1 [Amb180780] | 333 |  |  | 
2 | CC(=O)c1ccc2c3c(onc13)-c1ccccc1C2=O [Amb3377585] | 18.3 and 18 | 14 | 1 | 4
3 | CC(=O)C1=C(c2ccccc2)C(=O)c2ccccc2C1=O [Amb4317088] | 1.9 | 15 | 2 | 6
4 | COc1ccc2c(=O)cc(C(Cl)(Cl)Cl)oc2c1 [MMV665820] | ~ 6 |  |  | 
5 | OC1CCCCC1C1(NC(=S)Nc2ccccc2)CCCCC1 (stereo not drawn) [MMV665980] | > 6 |  |  | > 9
6 | CC1=CC(=O)C(C(C)C)=C/C1=N/OS(=O)(=O)c1ccccc1 [STK 740987] | > 105 | > 39 |  | > 59

“And” between values parts separate entries of the source, which are not always exact repeats. Equal values may be shown once.
